Results are given in words; binding and its absence hold for the method and conditions named. Binding seen in cells or lysates may run through a third protein. A yes stands for co-enrichment or nearness to the bait. Other partners may have been found.
Legend:
[1] = molecular target: Scn2a (mouse, endogenous, TurboID-HA knock-in) (mouse (endogenous in forebrain)) (UniProt B1AWN6); test: proximity labelling
[2] = molecular target: Scn8a (mouse, endogenous, TurboID-HA knock-in) (mouse (endogenous in forebrain)) (UniProt Q9WTU3); test: proximity labelling

Chains of the proteins cited; added tags and fusions are not shown.
UniProt B1AWN6, whole entry: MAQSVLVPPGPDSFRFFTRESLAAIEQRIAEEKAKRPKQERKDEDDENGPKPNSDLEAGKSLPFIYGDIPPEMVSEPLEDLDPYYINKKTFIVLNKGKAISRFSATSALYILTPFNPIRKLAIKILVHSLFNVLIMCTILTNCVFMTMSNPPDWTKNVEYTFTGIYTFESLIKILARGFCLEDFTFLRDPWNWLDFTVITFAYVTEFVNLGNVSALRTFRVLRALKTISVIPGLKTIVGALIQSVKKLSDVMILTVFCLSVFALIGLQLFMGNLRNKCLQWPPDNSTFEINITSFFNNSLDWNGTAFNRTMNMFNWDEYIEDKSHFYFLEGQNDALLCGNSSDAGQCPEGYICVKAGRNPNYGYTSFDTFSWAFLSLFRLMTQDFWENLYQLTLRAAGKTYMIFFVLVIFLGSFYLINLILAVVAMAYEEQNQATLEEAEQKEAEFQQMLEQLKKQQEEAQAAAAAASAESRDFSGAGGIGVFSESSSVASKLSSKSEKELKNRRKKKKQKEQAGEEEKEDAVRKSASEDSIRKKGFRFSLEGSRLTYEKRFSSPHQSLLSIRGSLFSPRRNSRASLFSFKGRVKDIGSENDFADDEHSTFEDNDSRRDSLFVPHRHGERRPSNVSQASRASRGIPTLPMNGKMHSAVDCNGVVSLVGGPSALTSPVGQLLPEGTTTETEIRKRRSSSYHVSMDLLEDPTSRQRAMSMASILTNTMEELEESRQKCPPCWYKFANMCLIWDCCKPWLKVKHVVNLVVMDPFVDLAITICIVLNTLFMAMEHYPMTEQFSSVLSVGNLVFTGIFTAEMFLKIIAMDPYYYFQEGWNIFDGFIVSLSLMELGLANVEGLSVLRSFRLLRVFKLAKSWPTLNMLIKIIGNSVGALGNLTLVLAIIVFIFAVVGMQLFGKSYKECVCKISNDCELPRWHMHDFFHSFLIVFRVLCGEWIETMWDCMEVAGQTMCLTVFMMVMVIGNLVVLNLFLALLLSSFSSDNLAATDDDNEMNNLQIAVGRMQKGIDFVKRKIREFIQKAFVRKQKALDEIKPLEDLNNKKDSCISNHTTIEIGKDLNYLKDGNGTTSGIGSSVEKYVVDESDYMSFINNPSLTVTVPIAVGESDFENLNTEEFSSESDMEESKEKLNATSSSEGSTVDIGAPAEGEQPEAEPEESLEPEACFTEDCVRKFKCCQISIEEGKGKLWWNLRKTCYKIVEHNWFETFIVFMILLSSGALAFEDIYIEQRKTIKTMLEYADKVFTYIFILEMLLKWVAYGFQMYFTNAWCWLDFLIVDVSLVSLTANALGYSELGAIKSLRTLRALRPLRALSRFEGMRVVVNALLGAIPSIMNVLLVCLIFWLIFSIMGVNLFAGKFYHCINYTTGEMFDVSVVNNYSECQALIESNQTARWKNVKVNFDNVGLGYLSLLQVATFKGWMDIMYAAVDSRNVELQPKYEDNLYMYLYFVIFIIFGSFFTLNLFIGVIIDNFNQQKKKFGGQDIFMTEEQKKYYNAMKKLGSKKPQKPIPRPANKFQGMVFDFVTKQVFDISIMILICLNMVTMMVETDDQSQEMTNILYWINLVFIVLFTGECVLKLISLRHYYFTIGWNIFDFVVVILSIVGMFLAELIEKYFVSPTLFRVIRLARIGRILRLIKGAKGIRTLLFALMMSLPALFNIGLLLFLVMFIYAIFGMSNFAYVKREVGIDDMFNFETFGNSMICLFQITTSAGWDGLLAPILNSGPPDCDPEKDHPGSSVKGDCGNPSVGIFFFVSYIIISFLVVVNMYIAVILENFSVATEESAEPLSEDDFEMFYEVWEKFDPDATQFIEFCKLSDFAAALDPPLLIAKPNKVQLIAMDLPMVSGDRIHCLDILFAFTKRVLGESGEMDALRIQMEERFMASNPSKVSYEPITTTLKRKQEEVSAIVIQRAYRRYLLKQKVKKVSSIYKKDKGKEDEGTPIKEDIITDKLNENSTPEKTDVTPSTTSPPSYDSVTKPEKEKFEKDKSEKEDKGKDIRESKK
UniProt Q9WTU3, whole entry: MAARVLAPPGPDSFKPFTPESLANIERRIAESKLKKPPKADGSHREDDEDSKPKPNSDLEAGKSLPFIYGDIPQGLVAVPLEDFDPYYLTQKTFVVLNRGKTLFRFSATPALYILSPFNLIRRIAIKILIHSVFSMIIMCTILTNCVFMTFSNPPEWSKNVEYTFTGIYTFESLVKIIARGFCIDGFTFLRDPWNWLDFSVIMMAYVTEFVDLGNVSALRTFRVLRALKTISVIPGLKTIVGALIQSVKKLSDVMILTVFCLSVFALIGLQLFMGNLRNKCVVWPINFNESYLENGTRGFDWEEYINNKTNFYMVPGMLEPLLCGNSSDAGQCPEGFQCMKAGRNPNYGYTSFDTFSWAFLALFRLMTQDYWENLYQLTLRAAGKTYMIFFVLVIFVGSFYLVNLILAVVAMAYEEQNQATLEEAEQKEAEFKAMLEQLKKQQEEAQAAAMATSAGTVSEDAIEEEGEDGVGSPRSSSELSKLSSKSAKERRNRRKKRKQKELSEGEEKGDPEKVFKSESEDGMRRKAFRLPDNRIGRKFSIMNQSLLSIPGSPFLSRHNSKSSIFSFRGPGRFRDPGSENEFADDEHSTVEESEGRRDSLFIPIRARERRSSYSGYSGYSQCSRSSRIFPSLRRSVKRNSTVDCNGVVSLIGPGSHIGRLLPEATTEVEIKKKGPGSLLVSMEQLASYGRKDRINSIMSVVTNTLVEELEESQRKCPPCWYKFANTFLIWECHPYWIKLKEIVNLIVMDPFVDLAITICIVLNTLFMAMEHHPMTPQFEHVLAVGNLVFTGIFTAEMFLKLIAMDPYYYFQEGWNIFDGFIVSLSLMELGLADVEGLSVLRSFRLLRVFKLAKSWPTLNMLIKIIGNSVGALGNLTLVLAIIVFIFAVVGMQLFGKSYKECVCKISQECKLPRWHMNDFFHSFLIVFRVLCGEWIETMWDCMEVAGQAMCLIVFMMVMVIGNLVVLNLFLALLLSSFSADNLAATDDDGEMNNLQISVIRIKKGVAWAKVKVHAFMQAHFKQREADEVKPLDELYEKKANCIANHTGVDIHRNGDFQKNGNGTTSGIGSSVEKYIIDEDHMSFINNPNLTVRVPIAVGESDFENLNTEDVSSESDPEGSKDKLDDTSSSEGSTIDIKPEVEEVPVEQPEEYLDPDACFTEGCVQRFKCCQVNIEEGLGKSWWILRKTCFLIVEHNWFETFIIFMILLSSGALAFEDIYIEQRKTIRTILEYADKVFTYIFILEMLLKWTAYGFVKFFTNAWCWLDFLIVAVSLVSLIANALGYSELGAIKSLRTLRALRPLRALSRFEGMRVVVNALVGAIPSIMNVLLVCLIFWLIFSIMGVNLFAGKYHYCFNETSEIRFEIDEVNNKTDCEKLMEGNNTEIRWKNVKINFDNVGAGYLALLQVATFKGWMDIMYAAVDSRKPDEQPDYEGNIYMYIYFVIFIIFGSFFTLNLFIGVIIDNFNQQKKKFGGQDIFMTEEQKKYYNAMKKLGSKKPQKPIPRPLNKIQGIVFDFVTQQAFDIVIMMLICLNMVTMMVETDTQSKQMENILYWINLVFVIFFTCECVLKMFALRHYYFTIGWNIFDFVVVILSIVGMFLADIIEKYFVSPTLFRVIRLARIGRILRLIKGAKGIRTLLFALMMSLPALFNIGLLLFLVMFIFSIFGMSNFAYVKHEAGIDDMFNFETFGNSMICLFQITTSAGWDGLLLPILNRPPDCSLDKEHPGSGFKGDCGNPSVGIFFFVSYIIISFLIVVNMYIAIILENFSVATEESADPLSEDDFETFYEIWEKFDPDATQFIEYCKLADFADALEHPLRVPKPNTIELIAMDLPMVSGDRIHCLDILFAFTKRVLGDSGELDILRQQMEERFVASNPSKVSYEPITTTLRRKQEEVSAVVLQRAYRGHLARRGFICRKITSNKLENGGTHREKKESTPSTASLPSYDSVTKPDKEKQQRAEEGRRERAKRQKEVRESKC

Substance | binding [1] | binding [2]
Scn1b (from UniProt P97952 19-218) | binds | –
Nav3 (from UniProt Q80TN7 1-2359) | binds | –
Mical3 (from UniProt Q8CJ19 1-1993) | binds | binds
Itsn1 (from UniProt Q9Z0R4 1-1714) | binds | binds
